Values quoted from earlier work in patent publication US5227485A, “Pyrazolo[3,4-d]pyrimidines with adenosine-like binding affinities” (Griffith University, priority 1990, dated 1993).
At least one structure is not confirmed: it was looked up by name or label, or the drawing left a doubt.

Assays:
mouse = settings: cited from earlier work
A1 surface receptors = settings: adenylate cyclase systems; NECA vs R-PIA; cited from earlier work

## C[C@H](Cc1ccccc1)Nc1ncnc2c1ncn2[C@@H]1O[C@H](CO)[C@@H](O)[C@H]1O [R-PIA, R-N^6 -phenylisopropyl adenosine]
mouse
  dose affecting mouse locomotor activity relative to doses required to elicit cardiovascular effects: 1/10
A1 surface receptors
  agonist potency at A1 surface receptors: the reverse potency order is seen with A1 surface receptors
